The record followed here is paper PMC12120719, “Targeting Senescence with Apigenin Improves Chemotherapeutic Efficacy and Ameliorates Age‐Related Conditions in Mice” (Advanced Science, 2025).

By UniProt entry, the sequences of proteins in these tests, tags left out.
UniProt P11142: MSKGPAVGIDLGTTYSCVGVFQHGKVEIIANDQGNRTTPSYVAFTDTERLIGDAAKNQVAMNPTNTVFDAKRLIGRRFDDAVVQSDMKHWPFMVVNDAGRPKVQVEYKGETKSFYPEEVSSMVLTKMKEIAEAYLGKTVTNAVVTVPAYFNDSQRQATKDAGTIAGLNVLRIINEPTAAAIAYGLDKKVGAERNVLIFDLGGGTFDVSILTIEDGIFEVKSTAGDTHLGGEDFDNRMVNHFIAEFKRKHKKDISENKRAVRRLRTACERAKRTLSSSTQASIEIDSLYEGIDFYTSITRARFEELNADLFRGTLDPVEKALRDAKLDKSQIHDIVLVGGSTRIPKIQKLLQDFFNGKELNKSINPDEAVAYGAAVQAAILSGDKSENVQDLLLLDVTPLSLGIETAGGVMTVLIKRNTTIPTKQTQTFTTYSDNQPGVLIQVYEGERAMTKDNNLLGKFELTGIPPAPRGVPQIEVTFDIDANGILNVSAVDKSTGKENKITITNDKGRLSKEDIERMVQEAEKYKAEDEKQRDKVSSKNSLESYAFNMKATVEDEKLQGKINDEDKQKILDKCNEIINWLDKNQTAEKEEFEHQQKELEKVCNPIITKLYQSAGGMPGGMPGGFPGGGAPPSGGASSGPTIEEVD

These are yes or no findings as the source states them, for the method shown. In cells and extracts the contact can be indirect. Here binding means that the protein was enriched with, or labelled near, the bait; the list need not be complete.

The assay has as its target T1, peroxiredoxin 6 (human) (UniProt P30041).
T1 sequence: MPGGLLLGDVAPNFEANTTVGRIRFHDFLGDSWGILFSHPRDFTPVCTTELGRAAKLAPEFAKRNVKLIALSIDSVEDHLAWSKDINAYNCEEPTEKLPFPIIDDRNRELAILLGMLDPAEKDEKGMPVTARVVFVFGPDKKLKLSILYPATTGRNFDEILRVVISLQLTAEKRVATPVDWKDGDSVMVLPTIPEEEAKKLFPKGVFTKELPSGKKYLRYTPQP
Briefly: affinity purification with mass spectrometry; PRDX6-mediated co-immunoprecipitation followed by MS analysis.

On to HSPA8 (from UniProt P11142 1-646), for which the binding entry is on record as “binds”.
